The other results are listed elsewhere or left out.

Chains of the proteins cited; added tags and fusions are not shown. Lines headed by an entry give the natural chain unless they say otherwise; changes in a name come on top.
UniProt Q9UKV3: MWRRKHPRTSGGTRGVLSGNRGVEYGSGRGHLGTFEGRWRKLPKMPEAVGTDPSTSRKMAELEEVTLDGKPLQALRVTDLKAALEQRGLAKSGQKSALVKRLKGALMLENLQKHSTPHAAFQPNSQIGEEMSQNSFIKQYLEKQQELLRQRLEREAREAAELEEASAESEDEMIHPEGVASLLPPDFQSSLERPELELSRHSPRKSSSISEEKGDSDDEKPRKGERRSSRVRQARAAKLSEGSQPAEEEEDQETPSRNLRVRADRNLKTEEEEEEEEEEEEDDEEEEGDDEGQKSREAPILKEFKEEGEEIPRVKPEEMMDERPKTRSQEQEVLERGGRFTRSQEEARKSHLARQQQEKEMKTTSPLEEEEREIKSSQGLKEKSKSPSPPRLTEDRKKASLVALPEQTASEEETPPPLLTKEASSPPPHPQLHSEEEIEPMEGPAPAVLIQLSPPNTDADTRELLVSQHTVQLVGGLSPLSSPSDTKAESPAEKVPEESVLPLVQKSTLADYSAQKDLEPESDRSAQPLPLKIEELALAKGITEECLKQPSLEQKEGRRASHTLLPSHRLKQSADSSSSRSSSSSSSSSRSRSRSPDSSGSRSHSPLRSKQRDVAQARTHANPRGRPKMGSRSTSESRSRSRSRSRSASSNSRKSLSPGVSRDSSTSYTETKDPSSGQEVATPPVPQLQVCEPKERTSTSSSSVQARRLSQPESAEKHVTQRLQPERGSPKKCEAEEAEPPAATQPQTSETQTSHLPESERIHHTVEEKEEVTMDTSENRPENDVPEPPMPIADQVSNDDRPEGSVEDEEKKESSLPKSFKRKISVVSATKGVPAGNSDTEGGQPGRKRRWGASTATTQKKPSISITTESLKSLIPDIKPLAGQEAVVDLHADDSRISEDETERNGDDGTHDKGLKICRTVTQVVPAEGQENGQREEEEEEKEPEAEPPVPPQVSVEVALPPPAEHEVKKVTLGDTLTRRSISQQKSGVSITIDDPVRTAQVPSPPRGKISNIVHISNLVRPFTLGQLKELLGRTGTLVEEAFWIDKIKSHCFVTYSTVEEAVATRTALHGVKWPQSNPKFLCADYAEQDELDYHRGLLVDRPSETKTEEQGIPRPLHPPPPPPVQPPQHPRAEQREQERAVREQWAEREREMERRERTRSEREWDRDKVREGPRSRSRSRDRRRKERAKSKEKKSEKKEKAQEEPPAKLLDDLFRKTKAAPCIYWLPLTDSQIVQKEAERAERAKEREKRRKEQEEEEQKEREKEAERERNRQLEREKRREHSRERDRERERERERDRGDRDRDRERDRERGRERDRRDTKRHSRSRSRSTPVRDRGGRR
UniProt Q9BR61: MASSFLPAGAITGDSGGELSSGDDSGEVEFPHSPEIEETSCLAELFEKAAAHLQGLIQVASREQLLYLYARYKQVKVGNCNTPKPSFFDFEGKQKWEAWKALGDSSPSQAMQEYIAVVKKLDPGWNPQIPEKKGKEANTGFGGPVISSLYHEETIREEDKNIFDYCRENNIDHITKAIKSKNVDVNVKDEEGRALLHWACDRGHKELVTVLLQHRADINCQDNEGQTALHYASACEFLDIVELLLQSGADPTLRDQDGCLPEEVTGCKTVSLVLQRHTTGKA
UniProt Q9BTE6: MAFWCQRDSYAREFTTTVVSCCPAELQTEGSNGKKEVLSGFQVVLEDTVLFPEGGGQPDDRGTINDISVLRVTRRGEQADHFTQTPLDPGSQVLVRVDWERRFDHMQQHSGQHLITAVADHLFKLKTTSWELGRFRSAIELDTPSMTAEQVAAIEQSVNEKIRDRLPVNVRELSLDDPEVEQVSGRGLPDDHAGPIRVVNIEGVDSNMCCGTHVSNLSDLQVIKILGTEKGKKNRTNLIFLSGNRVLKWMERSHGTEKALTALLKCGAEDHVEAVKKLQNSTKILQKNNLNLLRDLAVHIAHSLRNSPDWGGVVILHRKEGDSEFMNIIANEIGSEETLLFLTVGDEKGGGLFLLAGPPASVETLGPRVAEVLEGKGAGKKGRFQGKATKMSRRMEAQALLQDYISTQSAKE
UniProt Q9UNA0: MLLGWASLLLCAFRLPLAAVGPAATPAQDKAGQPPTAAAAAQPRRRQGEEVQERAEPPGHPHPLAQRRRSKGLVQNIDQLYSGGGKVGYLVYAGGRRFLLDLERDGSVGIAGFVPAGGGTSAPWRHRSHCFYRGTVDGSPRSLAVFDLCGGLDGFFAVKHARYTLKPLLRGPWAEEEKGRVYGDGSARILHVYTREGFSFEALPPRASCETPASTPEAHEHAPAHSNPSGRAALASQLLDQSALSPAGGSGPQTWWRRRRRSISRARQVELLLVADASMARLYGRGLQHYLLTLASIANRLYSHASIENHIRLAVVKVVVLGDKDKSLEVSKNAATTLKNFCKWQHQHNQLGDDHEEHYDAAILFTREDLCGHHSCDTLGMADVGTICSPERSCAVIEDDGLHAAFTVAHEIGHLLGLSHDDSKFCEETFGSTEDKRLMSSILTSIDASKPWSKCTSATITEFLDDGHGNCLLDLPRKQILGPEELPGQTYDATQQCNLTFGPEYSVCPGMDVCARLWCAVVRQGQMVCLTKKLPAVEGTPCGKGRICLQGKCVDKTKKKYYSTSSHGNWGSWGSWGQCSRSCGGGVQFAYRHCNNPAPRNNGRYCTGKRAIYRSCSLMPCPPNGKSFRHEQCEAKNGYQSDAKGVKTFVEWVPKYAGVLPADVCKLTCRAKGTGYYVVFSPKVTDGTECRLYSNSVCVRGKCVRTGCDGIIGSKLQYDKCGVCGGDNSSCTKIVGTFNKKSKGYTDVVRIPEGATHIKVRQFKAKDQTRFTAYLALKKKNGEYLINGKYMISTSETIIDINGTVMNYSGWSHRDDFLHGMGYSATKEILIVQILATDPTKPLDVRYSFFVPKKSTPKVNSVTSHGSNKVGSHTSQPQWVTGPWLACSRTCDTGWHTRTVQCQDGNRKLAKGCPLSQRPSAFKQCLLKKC
UniProt P33121: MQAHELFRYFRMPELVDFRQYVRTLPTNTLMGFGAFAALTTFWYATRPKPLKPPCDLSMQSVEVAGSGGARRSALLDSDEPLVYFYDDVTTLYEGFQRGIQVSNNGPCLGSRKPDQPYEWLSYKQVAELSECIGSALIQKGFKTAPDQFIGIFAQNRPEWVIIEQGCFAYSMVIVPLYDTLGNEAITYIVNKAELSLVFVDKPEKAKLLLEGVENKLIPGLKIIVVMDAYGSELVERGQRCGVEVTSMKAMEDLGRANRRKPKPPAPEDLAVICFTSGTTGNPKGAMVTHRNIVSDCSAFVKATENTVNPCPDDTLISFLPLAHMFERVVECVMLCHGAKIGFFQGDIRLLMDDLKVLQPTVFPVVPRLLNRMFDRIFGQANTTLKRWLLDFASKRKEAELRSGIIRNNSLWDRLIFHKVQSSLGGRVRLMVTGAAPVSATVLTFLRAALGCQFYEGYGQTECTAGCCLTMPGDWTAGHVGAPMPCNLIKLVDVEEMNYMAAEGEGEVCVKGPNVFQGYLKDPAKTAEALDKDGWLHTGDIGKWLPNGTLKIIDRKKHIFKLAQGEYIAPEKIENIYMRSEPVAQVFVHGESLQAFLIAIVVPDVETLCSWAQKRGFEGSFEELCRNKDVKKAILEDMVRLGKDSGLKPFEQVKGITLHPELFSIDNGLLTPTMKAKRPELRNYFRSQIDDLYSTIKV
UniProt P24666: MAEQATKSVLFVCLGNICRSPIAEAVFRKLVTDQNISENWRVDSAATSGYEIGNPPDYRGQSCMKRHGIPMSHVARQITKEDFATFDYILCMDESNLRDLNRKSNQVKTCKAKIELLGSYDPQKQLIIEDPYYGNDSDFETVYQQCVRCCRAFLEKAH
UniProt Q13685: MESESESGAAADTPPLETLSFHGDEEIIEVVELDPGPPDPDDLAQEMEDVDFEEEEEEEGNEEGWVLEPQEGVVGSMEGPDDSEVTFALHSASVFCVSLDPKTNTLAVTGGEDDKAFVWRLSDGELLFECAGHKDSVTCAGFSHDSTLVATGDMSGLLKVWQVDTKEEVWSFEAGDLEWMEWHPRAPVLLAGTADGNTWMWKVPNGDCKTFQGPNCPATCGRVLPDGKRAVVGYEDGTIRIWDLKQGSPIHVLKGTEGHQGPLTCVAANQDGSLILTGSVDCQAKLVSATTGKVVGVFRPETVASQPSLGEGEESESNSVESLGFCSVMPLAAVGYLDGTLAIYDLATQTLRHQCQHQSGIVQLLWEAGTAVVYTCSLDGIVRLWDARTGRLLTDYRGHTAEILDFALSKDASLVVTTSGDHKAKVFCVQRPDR
UniProt Q96GS6: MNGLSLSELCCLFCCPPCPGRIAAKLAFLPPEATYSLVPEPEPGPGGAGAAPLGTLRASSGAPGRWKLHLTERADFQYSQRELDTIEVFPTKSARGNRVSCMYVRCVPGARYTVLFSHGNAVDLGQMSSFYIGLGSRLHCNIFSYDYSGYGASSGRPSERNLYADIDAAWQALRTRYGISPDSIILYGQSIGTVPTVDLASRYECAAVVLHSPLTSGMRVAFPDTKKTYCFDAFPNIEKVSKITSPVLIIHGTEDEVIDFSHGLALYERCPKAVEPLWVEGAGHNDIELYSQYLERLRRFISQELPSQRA
UniProt Q15057: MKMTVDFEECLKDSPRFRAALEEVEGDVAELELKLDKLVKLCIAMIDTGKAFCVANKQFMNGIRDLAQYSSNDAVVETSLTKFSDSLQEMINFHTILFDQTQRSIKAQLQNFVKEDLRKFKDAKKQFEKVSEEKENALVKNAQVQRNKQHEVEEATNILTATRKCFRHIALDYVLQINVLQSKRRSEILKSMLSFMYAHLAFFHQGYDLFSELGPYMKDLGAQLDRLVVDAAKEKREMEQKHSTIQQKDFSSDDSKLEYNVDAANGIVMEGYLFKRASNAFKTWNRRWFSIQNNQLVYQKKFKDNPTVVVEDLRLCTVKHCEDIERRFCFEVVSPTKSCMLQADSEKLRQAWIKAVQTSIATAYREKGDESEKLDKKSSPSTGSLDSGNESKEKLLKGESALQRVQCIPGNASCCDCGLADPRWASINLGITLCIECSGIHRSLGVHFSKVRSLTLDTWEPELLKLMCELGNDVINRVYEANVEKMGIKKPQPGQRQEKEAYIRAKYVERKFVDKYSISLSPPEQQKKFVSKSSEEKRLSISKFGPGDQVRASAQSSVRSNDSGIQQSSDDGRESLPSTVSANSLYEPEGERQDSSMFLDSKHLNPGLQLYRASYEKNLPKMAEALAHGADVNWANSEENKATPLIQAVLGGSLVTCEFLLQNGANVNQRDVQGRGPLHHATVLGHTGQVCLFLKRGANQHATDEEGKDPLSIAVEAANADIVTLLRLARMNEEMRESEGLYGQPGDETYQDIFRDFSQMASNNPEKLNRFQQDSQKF
UniProt Q562R1, whole entry, looked up: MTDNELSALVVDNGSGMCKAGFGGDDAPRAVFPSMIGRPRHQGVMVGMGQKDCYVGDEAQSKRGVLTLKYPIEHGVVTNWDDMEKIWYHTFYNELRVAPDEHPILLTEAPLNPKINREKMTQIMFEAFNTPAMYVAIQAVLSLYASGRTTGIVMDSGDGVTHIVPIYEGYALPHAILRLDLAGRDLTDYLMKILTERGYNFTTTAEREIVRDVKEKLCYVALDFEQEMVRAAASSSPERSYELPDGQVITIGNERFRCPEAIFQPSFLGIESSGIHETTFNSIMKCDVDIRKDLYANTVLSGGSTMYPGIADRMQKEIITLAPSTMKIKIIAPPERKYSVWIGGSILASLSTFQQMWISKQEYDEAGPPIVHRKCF
UniProt Q99798: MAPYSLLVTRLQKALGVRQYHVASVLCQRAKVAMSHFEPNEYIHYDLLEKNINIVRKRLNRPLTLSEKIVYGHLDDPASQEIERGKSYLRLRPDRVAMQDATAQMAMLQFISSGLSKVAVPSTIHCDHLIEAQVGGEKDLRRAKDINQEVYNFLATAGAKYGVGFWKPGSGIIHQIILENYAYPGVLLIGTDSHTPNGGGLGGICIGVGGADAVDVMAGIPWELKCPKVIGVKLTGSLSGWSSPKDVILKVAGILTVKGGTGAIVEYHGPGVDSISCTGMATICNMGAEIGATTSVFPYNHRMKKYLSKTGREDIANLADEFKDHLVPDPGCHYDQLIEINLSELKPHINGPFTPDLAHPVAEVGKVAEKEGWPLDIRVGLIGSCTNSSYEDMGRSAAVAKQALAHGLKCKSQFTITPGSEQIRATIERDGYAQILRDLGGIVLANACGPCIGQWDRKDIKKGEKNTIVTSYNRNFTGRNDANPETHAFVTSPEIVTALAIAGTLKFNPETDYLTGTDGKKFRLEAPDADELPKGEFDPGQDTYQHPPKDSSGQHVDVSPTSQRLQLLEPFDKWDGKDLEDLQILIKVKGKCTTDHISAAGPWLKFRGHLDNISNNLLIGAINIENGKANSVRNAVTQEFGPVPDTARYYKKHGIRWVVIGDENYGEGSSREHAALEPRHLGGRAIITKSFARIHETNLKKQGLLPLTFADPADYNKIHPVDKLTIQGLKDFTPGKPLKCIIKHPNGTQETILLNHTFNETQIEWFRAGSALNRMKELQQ

Compound in the first assay: COC(=O)N[C@@H](C)CNc1nccc(-c2cn(C(C)C)nc2-c2cc(Cl)cc(NS(C)(=O)=O)c2F)n1 [encorafenib]
As to the kind of experiment: log2 fold change, soluble protein after heating vs DMSO (PISA); higher = thermal stabilisation; K562 cells, 10 uM, 30 min; active = over 0.2 and 3.5 SD of the protein, either way, in both replicates (recomputed). Summed up:
(§1)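 Soluble protein was defined as the supernatant after 21,000xg for 90 min. It came from K562 cells at 2×10^6 cells/mL given 10 μM compound for 30 min, heated in aliquots for 3 min across 48°C-58°C, pooled, and extracted in PBS with 0.5% NP-40 at 4°C, and was quantified by TMTpro 16plex LC-MS/MS with equalised channel sums. Thermal stability against control samples, from duplicates, is reported as log2 fold change.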
Consider ACADM isoform 2 (UniProt P11310), for which the log2 fold change was inactive: -0.016.
As to ACIN1 (UniProt Q9UKV3), the log2 fold change is inactive: -0.038.
For the target AAK1, A0A096LP25, the log2 fold change was inactive: 0.033.
Still for that read-out and setting: the same measure for ACSF3 (UniProt Q4G176): inactive: 0.146; for AARS2 (UniProt Q5JTZ9): inactive: 0; for ACBD6 (UniProt Q9BR61): inactive: 0.098.
Regarding ACADVL isoform 3 (UniProt P49748), the log2 fold change was inactive: -0.021.
For ACSL5 isoform 3 (UniProt Q9ULC5), the log2 fold change was inactive: -0.072.
Turning to AARSD1 isoform 3 (UniProt Q9BTE6), the log2 fold change is inactive: 0.08.
Take ABITRAM (UniProt Q9NX38): the log2 fold change is inactive: 0.025.

Compound in a further assay: COC(=O)[C@H](CCSC)NC(=O)C1=C(C=C(C=C1)NC[C@H](CS)N)C2=CC=CC=C2
Described as above. Summed up:
as §1
As for AAK1 (UniProt Q2M2I8), the log2 fold change is inactive: -0.044.
As for ADAMTS5 (UniProt Q9UNA0), the log2 fold change is inactive: 0.028.
Consider ABHD13 (UniProt Q7L211), for which the log2 fold change was inactive: -0.21.
Take ACSL1 (UniProt P33121): the log2 fold change is inactive: 0.042.
Consider ABHD16A (UniProt O95870), for which the log2 fold change was inactive: 0.031.
As for ACP1 isoform 2 (UniProt P24666), the log2 fold change is inactive: 0.024.
AAR2 (UniProt Q9Y312): the log2 fold change was inactive: -0.015.
On to ACSM3 (UniProt Q53FZ2), for which the log2 fold change is inactive: -0.064.
Regarding ABCC10 (UniProt Q5T3U5), the log2 fold change was inactive: 0.036.
On the same count and under the same terms, the value for AAMP (UniProt Q13685) was inactive: -0.009.
On to ACSL4 (UniProt O60488), for which the log2 fold change was inactive: -0.024.
ABHD17A isoform 2 (UniProt Q96GS6): the log2 fold change was inactive: 0.059.
Take ACAP2 (UniProt Q15057): the log2 fold change was inactive: -0.026.
For the target ACTR1B (UniProt P42025), the log2 fold change was inactive: -0.075.
Consider ACP1 (UniProt P24666), for which the log2 fold change is inactive: -0.111.
ADAD1 (UniProt Q96M93): the log2 fold change was inactive: 0.11.
Take ABCC5 (UniProt O15440): the log2 fold change is inactive: 0.026.
As to ACSL3 (UniProt O95573), the log2 fold change is inactive: -0.01.
As for ADAM15 (UniProt Q13444), the log2 fold change was inactive: 0.056.
On to AAGAB (UniProt Q6PD74), for which the log2 fold change is inactive: -0.029.
ACSL6 isoform 1 (UniProt Q9UKU0): the log2 fold change was inactive: 0.021.
On to ACTBL2 (UniProt Q562R1), for which the log2 fold change is inactive: 0.15.
Same read-out and setting: the value for ABCB6 (UniProt Q9NP58) was inactive: -0.017; that for ABCA3 (UniProt Q99758) was inactive: -0.039; that for AASDH (UniProt Q4L235) was inactive: -0.004.
As to ACO2 (UniProt Q99798), the log2 fold change is inactive: -0.037.
The same measure, in the same setting: the same measure for ACADM isoform 2 (UniProt P11310): inactive: 0.004; for ACIN1 (UniProt Q9UKV3): inactive: 0.003; for AAK1, A0A096LP25: inactive: 0.023.
With ACSF3 (UniProt Q4G176), the log2 fold change is inactive: -0.019.
AARS2 (UniProt Q5JTZ9): the log2 fold change was inactive: -0.017.
Still for that read-out and setting: the value for ACBD6 (UniProt Q9BR61) was inactive: -0.047.
For ACADVL isoform 3 (UniProt P49748), the log2 fold change is inactive: -0.001.
For ACSL5 isoform 3 (UniProt Q9ULC5), the log2 fold change was inactive: 0.
For AARSD1 isoform 3 (UniProt Q9BTE6), the log2 fold change was inactive: 0.004.
For the target ABITRAM (UniProt Q9NX38), the log2 fold change was inactive: -0.049.

(Values after the supplement of paper PMC10849652.)
